From patent US7935694B2, “Lactam compounds useful as protein kinase inhibitors” (Millennium Pharmaceuticals, Inc., priority 2004, dated 2011)
Some of these results come from one statement about several compounds together.

By UniProt entry, the sequences of proteins in these tests, tags left out. Residues count along the entry.
UniProt P53350, 2-369 T210D: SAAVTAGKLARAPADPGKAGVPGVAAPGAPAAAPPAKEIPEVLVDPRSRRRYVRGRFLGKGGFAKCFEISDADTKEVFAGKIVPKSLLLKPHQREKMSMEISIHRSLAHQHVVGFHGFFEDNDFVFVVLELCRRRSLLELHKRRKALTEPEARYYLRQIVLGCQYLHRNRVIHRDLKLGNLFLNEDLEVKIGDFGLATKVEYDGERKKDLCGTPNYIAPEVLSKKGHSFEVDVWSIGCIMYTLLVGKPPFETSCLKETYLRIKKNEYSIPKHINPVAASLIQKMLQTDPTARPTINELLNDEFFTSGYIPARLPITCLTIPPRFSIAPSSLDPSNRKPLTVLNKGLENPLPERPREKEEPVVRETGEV

Tests used:
Format in all cases: biochemical
[1] = target: T1, recombinant murine Aurora A enzyme (Mus musculus, UniProt P97477); assay: Aurora A DELFIA Kinase Assay; details: 1 mM ATP, 20 nM enzyme, 10 minutes at room temperature
T1 construct: hexahistidine (His6) (N); made in house; host or cells: insect cells (baculovirus, Bac-to-Bac)
T1 sequence (P97477 1-395): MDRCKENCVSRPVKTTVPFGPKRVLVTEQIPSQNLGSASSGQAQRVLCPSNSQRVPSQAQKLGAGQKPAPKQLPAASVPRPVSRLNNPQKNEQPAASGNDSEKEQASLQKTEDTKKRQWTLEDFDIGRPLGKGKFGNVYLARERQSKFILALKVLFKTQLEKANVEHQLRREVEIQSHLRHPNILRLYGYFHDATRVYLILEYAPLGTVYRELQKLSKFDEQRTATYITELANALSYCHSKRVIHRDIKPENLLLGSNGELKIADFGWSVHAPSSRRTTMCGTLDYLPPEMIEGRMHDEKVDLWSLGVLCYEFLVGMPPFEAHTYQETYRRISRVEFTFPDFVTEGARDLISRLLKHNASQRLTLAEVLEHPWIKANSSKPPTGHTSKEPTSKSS
Procedure: Recombinant mouse Aurora A with an amino-terminus hexahistidine tag (His-Aurora A) was expressed using a standard baculovirus vector and insect cell expression system (Bac-to-Bac®, Invitrogen). Soluble, recombinant mouse Aurora A was purified from insect cells using Ni-NTA agarose (Qiagen) as described by the manufacturer and further purified over an S75 size exclusion column (Amersham Pharmacia Biotech). The mouse Aurora A enzymatic reaction totaled 25 μL and contained 25 mM Tris-HCl (pH 8.5), 2.5 mM MgCl2, 0.05% Surfact-AMPS-20, 5 mM Sodium Fluoride, 5 mM DTT, 1 mM ATP, 3 μM peptide substrate (Biotin-β-[…]), and 20 nM recombinant murine Aurora A enzyme. The enzymatic reaction mixture, with and without Aurora inhibitors, was incubated for 10 minutes at room temperature before termination with 100 μL of stop buffer (1% BSA, 0.05% Surfact-AMPS-20, and 100 mM EDTA). A total of 100 μL of the enzyme reaction mixture was transferred to wells of a Neutravidin-coated 96-well plate (Pierce) and incubated at room temperature for 30 minutes. The wells were washed with wash buffer (25 mM Tris, 150 mM sodium chloride, and 0.1% Tween 20) and incubated for 1 hour with 100 μL of antibody reaction mixture containing 1% BSA, 0.05% Surfact-AMPS-20, anti-phospho-PKA rabbit polyclonal antibody (1:2000, New England Biolabs), and europium labeled anti-rabbit IgG (1:2000, Perkin Elmer). The wells were washed and then the bound europium was liberated using 100 μL of Enhancement Solution (Perkin Elmer). Quantification of europium was done using a WallacTM EnVision (Perkin Elmer).

[2] = target: T2, recombinant human PLK1[2-369]T210D (Homo sapiens, UniProt P53350, T210D); assay: PLK1 Flash Plate Assay; details: 8 μM ATP, 2.5 hours at 30° C.
T2 construct: recombinant human PLK1[2-369]T210D; Smt (SUMO) fusion partner (N, cleaved yes); host or cells: E. coli

GST-Chk-1 = target: T3, GST-Chk-1 (Homo sapiens, UniProt O14757); assay: Chk-1 DELFIA Kinase Assay; details: 50 or 600 μM ATP (depending on potency), 90 minutes at room temperature
T3 construct: made in house; host or cells: insect cells (baculovirus, Bac-to-Bac)
T3 sequence (O14757 1-476): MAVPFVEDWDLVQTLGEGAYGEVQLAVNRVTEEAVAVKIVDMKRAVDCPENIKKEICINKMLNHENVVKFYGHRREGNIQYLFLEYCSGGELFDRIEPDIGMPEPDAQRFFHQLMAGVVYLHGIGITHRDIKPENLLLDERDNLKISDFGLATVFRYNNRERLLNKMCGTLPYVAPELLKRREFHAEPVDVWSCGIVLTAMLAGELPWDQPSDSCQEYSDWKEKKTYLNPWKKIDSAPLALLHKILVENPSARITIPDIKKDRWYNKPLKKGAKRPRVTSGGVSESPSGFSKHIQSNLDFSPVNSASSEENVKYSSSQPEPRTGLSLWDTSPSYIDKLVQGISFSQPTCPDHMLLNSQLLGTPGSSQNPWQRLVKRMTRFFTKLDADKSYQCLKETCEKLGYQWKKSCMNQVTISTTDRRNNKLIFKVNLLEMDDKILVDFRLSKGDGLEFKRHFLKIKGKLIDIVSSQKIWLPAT

Question: What does the source list for `COc1ccc2c(c1)-c1nc(Nc3ccc(C(=O)O)cc3)ncc1CC(=O)N2` [Compound I-8, 4-(10-Methoxy-6-oxo-6,7-dihydro-5H-benzo[b]pyrimido[4,5-d]azepin-2-ylamino)-benzoic acid]?
Answer: IC50 [1]: ≤ 5 µM; IC50 [2]: ≤ 5 µM

Question: How did the IC50 (GST-Chk-1) turn out when `N#Cc1cccc(Nc2ncc3c(n2)-c2ccc(Cl)cc2NC(=O)C3)c1` [Compound I-90, 3-(9-Chloro-6-oxo-6,7-dihydro-5H-benzo[b]pyrimido[4,5-d]azepin-2-ylamino)-benzonitrile] was run?
Answer: ≤ 5 µM

Question: How did the IC50 (GST-Chk-1) turn out when `COc1ccc(Nc2ncc3c(n2)-c2ccc(Cl)cc2N(CCCN)C(=O)C3)cc1OC` [Compound I-40, 7-(3-Amino-propyl)-9-chloro-2-(3,4-dimethoxy-phenylamino)-5H,7H-benzo[b]pyrimido[4,5-d]azepin-6-one] was run?
Answer: ≤ 5 µM

Question: And the IC50 [1]?
Answer: ≤ 5 µM

Question: For `COc1ccccc1Nc1ncc2c(n1)-c1ccc(Cl)cc1NC(=O)C2` [Compound I-16, 9-Chloro-2-(2-methoxy-phenylamino)-5H,7H-benzo[b]pyrimido[4,5-d]azepin-6-one], which IC50 [2] is on record?
Answer: ≤ 5 µM

Question: For `O=C1Cc2cnc(Nc3ccc(C#CCO)cc3)nc2-c2ccc(Cl)cc2N1` [Compound I-54, 9-Chloro-2-[4-(3-hydroxy-prop-1-ynyl)-phenylamino]-5H,7H-benzo[b]pyrimido[4,5-d]azepin-6-one], which IC50 (GST-Chk-1) is on record?
Answer: ≤ 5 µM

Question: What about the IC50 [1] of the same compound?
Answer: ≤ 5 µM

Question: What does the source list for `COc1ccc(Nc2ncc3c(n2)-c2ccc(C(=O)NCCN)cc2NC(=O)C3)cc1OC` [Compound I-71, 2-(3,4-Dimethoxy-phenylamino)-6-oxo-6,7-dihydro-5H-benzo[b]pyrimido[4,5-d]azepine-9-carboxylic acid (2-amino-ethyl)-amide]?
Answer: IC50 [1]: ≤ 5 µM; IC50 [2]: ≤ 5 µM

Question: Which results are given for `COc1ccc(Nc2ncc3c(n2)-c2ccc(C#CCN4CCCC4)cc2NC(=O)C3)cc1OC` [Compound I-32, 2-(3,4-Dimethoxy-phenylamino)-9-(3-pyrrolidin-1-yl-prop-1-ynyl)-5H,7H benzo[b]pyrimido[4,5-d]azepin-6-one]?
Answer: IC50 [1]: ≤ 5 µM; IC50 [2]: ≤ 5 µM

Question: With `CC1C(=O)N(C)c2cc(Cl)ccc2-c2nc(Nc3ccc(C(=O)O)cc3)ncc21` (stereo not shown) [Compound I-68, 4-(9-Chloro-5,7-dimethyl-6-oxo-6,7-dihydro-5H-benzo[b]pyrimido[4,5-d]azepin-2-ylamino)-benzoic acid] as the compound, how does the IC50 [2] read?
Answer: ≤ 5 µM

Question: For `O=C1Cc2cnc(Nc3ccc(C(=O)O)cc3)nc2-c2cc(Br)ccc2N1` [Compound I-25, 4-(10-Bromo-6-oxo-6,7-dihydro-5H-benzo[b]pyrimido[4,5-d]azepin-2-ylamino)-benzoic acid], which IC50 [1] is on record?
Answer: ≤ 5 µM

Question: What about the IC50 [2] of the same compound?
Answer: ≤ 5 µM

Question: For `COc1ccc(Nc2ncc3c(n2)-c2ccc(C(=O)NCCCCN)cc2NC(=O)C3)cc1OC` [Compound I-73, 2-(3,4-Dimethoxy-phenylamino)-6-oxo-6,7-dihydro-5H-benzo[b]pyrimido[4,5-d]azepine-9-carboxylic acid (4-amino-butyl)-amide], which IC50 [1] is on record?
Answer: ≤ 5 µM

Question: And the IC50 [2]?
Answer: ≤ 5 µM

Question: With `COc1ccc(Nc2ncc3c(n2)-c2ccc(C#CCO)cc2NC(=O)C3)cc1OC` [Compound I-52, 2-(3,4-Dimethoxy-phenylamino)-9-(3-hydroxy-prop-1-ynyl)-5H,7H-benzo[b]pyrimido[4,5-d]azepin-6-one] as the compound, how does the IC50 [1] read?
Answer: ≤ 5 µM

Question: What about the IC50 [2] of the same compound?
Answer: ≤ 5 µM

Question: Which IC50 [1] does the source give for `COc1ccc(Nc2ncc3c(n2)-c2ccc(CCCNC(=O)OC(C)(C)C)cc2NC(=O)C3)cc1OC` [Compound I-41, {3-[2-(3,4-dimethoxy-phenylamino)-6-oxo-6,7-dihydro-5H-benzo[b]pyrimido[4,5-d]azepin-9-yl]-propyl}-carbamic acid tert-butyl ester] here?
Answer: ≤ 5 µM

Question: And the IC50 [2]?
Answer: ≤ 5 µM

Question: Which IC50 [1] does the source give for `COc1ccc(Nc2ncc3c(n2)-c2ccc(C(=O)NCCCN)cc2NC(=O)C3)cc1OC` [Compound I-72, 2-(3,4-Dimethoxy-phenylamino)-6-oxo-6,7-dihydro-5H-benzo[b]pyrimido[4,5-d]azepine-9-carboxylic acid (3-amino-propyl)-amide] here?
Answer: ≤ 5 µM

Question: What about the IC50 [2] of the same compound?
Answer: ≤ 5 µM

Question: How did the IC50 [1] turn out when `COc1ccc(Nc2ncc3c(n2)-c2ccc(C#CCN)cc2NC(=O)C3)cc1OC` [Compound I-38, 9-(3-Amino-prop-1-ynyl)-2-(3,4-dimethoxy-phenylamino)-5H,7H-benzo[b]pyrimido[4,5-d]azepin-6-one] was run?
Answer: ≤ 5 µM

Question: And the IC50 [2]?
Answer: ≤ 5 µM

Question: For `COc1ccc(Nc2ncc3c(n2)-c2cc(C#CCN4CCCC4)ccc2NC(=O)C3)cc1OC` [Compound I-31, 2-(3,4-Dimethoxy-phenylamino)-10-(3-pyrrolidin-1-yl-prop-1-ynyl)-5H,7H-benzo[b]pyrimido[4,5-d]azepin-6-one], which IC50 (GST-Chk-1) is on record?
Answer: ≤ 5 µM

Question: For `C[C@H]1C(=O)Nc2cc(Cl)ccc2-c2nc(Nc3ccc(C(=O)O)cc3)ncc21` [Compound I-69, 4-(9-Chloro-5-methyl-6-oxo-6,7-dihydro-5H-benzo[b]pyrimido[4,5-d]azepin-2-ylamino)-benzoic acid], which IC50 (GST-Chk-1) is on record?
Answer: ≤ 5 µM

Question: For `COc1ccc(Nc2ncc3c(n2)-c2cc(C(=O)NCCCN4CCCC4)ccc2NC(=O)C3)cc1OC` [Compound I-77, 2-(3,4-Dimethoxy-phenylamino)-6-oxo-6,7-dihydro-5H-benzo[b]pyrimido[4,5-d]azepine-10-carboxylic acid (3-pyrrolidin-1-yl-propyl)-amide], which IC50 (GST-Chk-1) is on record?
Answer: ≤ 0.5 µM

Question: With `COc1ccc(Nc2ncc3c(n2)-c2ccc(C(=O)O)cc2NC(=O)C3)cc1OC` [Compound I-53, 2-(3,4-dimethoxy-phenylamino)-6-oxo-6,7-dihydro-5H-benzo[b]pyrimido[4,5-d]azepine-9-carboxylic acid] as the compound, how does the IC50 [1] read?
Answer: ≤ 5 µM

Question: And the IC50 [2]?
Answer: ≤ 5 µM

Question: How did the IC50 [2] turn out when `O=C1Cc2cnc(Nc3cccc(CCO)c3)nc2-c2ccc(Cl)cc2N1` [Compound I-80, 9-Chloro-2-[3-(2-hydroxy-ethyl)-phenylamino]-5H,7H-benzo[b]pyrimido[4,5-d]azepin-6-one] was run?
Answer: ≤ 5 µM

Question: `O=C1Cc2cnc(Nc3ccccc3)nc2-c2ccc(Cl)cc2N1` [Compound I-61, 9-Chloro-2-phenylamino-5H,7H-benzo[b]pyrimido[4,5-d]azepin-6-one] was tested. Which IC50 (GST-Chk-1) did it give?
Answer: ≤ 5 µM

Question: For `COc1ccc(CNc2ncc3c(n2)-c2ccc(Cl)cc2NC(=O)C3)cc1OC` [Compound I-17, 9-Chloro-2-(3,4-dimethoxybenzyl)-5H,7H-benzo[b]pyrimido[45-d]azepin-6-one], which IC50 [2] is on record?
Answer: ≤ 5 µM

Question: How did the IC50 (GST-Chk-1) turn out when `COc1ccc(Nc2ncc3c(n2)-c2cc(C(=O)NCCCN)ccc2NC(=O)C3)cc1OC` [Compound I-76, 2-(3,4-Dimethoxy-phenylamino)-6-oxo-6,7-dihydro-5H-benzo[b]pyrimido[4,5-d]azepine-10-carboxylic acid (3-amino-propyl)-amide] was run?
Answer: ≤ 5 µM

Question: With `COC(=O)c1ccc(Nc2ncc3c(n2)-c2ccc(Cl)cc2NC(=O)C3)cc1` [Compound I-4, 4-(9-Chloro-6-oxo-6,7-dihydro-5H-benzopyrimido[4,5]azepin-2-ylamino)-benzoic acid methyl ester] as the compound, how does the IC50 [1] read?
Answer: ≤ 5 µM

Question: For `NCCCCNC(=O)c1cccc(Nc2ncc3c(n2)-c2ccc(Cl)cc2NC(=O)C3)c1` [Compound I-64, N-(4-Amino-butyl)-3-(9-chloro-6-oxo-6,7-dihydro-5H-benzo[b]pyrimido[4,5-d]azepin-2-ylamino)-benzamide], which IC50 [1] is on record?
Answer: ≤ 5 µM

Question: How did the IC50 [1] turn out when `NCCNC(=O)c1cccc(Nc2ncc3c(n2)-c2ccc(Cl)cc2NC(=O)C3)c1` [Compound I-62, N-(2-Amino-ethyl)-3-(9-chloro-6-oxo-6,7-dihydro-5H-benzo[b]pyrimido[4,5-d]azepin-2-ylamino)-benzamide] was run?
Answer: ≤ 5 µM
